The whole screen tested about 1,400 compounds, of which about 30 (2%) were called active. About 15% were inconclusive and are not listed. Calls follow the shape of the dose curve; as a rule, active = well fitted inhibition curve with a large enough effect; inconclusive = small, poorly fitted or top-dose-only effect; inactive = flat fitted curve, though single readings scatter. The list shows a part of the results.
Test: Firefly Luciferase Counterscreen for Inhibitors of ATXN expression
Conditions: luminescence; series mostly up to 57.5 µM; activity change, negative = inhibition: at the top concentration
Outline: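 Recombinant firefly luciferase at 10 nM final in 50 mM Tris pH 7.5, 10 mM MgCl2, 0.05% BSA, 0.01% Tween20 with substrate; compounds up to 57 uM final, 10 min room temperature, end-point luminescence. Buffer-only wells define 100% inhibition.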
% is scaled to controls: 0 for no effect and ±100 for the full control effect.

SMILES | activity change, negative = inhibition
C=CCOC(=O)C1=C(C)NC(SCC)=C(C#N)C1c1ccc(Cl)cc1 (centres undefined) | inactive: 3.44%
CN(C)CCNC(=O)c1ccc(Cl)c2cc3ccccc3nc12 | inactive: -1.46%
Cc1ccc(C)c(N2CCN(C(=O)C34CC5CC(C3)CC(n3nnc(C)n3)(C5)C4)CC2)c1 | inactive: 2.54%
CC(C)(C)OC(=O)CNC(=O)c1[nH]cnc1C(=O)Nc1ccc(CNC(=O)OC(C)(C)C)cc1 | inactive: -2.29%
COc1ccc(CCNC(=O)c2cc3c(F)cccc3s2)cc1OC | inactive: -19.9%
Cc1ccc(S(=O)(=O)c2nc(S(C)(=O)=O)sc2N2CCCCC2C)cc1 (centres undefined) | inactive: 0.578%
Cc1cc(C)cc(NS(=O)(=O)c2ccc3c(c2)c(=O)n(C)c(=O)n3C)c1 | inactive: 0.0788%
CN(C)CCNC(=O)c1cccc2nc3cccc(F)c3nc12 | inactive: -0.179%
O=C(c1ccoc1)N1CCN(c2cc(-c3ccco3)nc3cc(-c4ccccc4)nn23)CC1 | inactive: -17.6%
CC1(C)CC(N2CCN(Cc3ccccc3)CC2)=CC(=[N+]2CCCCC2)C1 | inactive: -8%
CCOC(=O)c1c(NC(=O)C(Sc2ccccc2)c2ccccc2)sc(C(=O)N(C)C)c1C (centres undefined) | inactive: 3.94%
O=C(Oc1c(CN2CCOCC2)cc(Cl)c2cccnc12)c1cccs1 | inactive: -2.8%
O=C(N/N=C/c1c(O)ccc2ccccc12)c1cccc(C(F)(F)F)c1 | inactive: -10.1%
COC1=C(C)C(O)=C(C(=O)/C=C/c2ccccc2)C(=O)C1(C)C | inactive: -13.5%
Cc1onc(-c2ccccc2)c1C(=O)Nc1ccc(S(=O)(=O)NC(C)(C)C)cc1 | inactive: 1.56%
C=CCOc1ccc(CNc2ccc3[nH]c(=O)[nH]c3c2)cc1OC | inactive: -18.3%
Clc1ccc(SCc2cc(N3CCOCC3)nc(-c3ccccn3)n2)cc1 | inactive: -1.11%
CCN(CC)CCC(c1ccc2c(c1)OCO2)c1c(OC)cc(OC)c2c(-c3ccccc3)cc(=O)oc12 (centres undefined) | inactive: -0.79%
CC(C)(C)n1nnnc1C(c1cccs1)N(Cc1ccc(Cl)cc1)CC1CCCO1 (centres undefined) | inactive: -0.8%
NNC(=O)/C(=N/Nc1ccccc1)S(=O)(=O)c1ccc(Cl)cc1 | inactive: -0.515%
COc1cc(OC)c(C(=O)C=Cc2ccc(OC)c(OC)c2)c(OC)c1 | inactive: -3.15%
Cc1ccc(/C=C2\SC(=S)N(CCCC(=O)NC3CCCC3)C2=O)cc1 | inactive: -2.42%
CCN(CC)S(=O)(=O)c1ccc(C(=O)Nc2ccc(Cc3ccncc3)cc2)cc1 | inactive: -2.13%
CCCCn1c(SCC(=O)Nc2cc(NC(=O)c3ccco3)ccc2C)nc2ccccc2c1=O | inactive: -0.949%
CN(C)CCNc1ccc(CO)c2sc3ccc(O)cc3c(=O)c12 | inactive: -5.83%

Sorted by heavy-atom count (largest number first): part of the list above.
SMILES | activity change, negative = inhibition
CC(C)(C)OC(=O)CNC(=O)c1[nH]cnc1C(=O)Nc1ccc(CNC(=O)OC(C)(C)C)cc1 | inactive: -2.29%
O=C(c1ccoc1)N1CCN(c2cc(-c3ccco3)nc3cc(-c4ccccc4)nn23)CC1 | inactive: -17.6%
COc1ccc(CCNC(=O)c2cc3c(F)cccc3s2)cc1OC | inactive: -19.9%

Next part:

SMILES | activity change, negative = inhibition
Cc1ncc(CO)c(/C=N/Nc2ccc(C(F)(F)F)cn2)c1O | inactive: -0.531%
CC1(Cc2ccc(C(F)(F)F)o2)C(=O)Nc2ccc(-c3cccc(C(F)(F)F)c3)cc21 (centres undefined) | inactive: -0.94%
CN1CCN(c2cc(-c3cc(O)c4ncccc4c3)ccn2)CC1 | inactive: -1.23%
O=C(c1c(F)cccc1F)N1CCCC(c2nc(-c3ccc(Cl)cc3)no2)C1 (centres undefined) | inactive: -10.2%
Cc1cc(C)c2c(N)c3cccc(C)c3nc2n1 | inactive: -7.14%
CCc1nc2ccc(C(=O)Nc3cccc(NS(C)(=O)=O)c3)cn2c1N(C)CCCc1ccccc1 | inactive: -2.96%
CC(C)n1cnc2c(N(C)c3ccccc3)nc(N(CCN(C)C)Cc3ccccc3)nc21 | inactive: 0.895%
COc1ccc(C2=NN(C(=O)c3ccc(Cl)c([N+](=O)[O-])c3)C(c3ccccc3)C2)cc1 (centres undefined) | inactive: -6.12%
CC(C)(CO)NCc1c(OCc2ccc(Cl)cc2)ccc2ccccc12 | inactive: -4.07%
Cc1ccc2cc(C3C(C#N)=C(N)Oc4c3ccc3cccnc43)c(=O)[nH]c2c1 (centres undefined) | inactive: -10.7%
CC1(C)c2[nH]c3ccccc3c2C[C@H]2C(=O)N(Cc3cccc(F)c3)C(=O)N21 | inactive: 5.72%
NC(N)=N/N=C/c1ccc(Cl)c(Cl)c1 | inactive: -1.22%
CCCN(CCC)S(=O)(=O)c1ccc(C(=O)Nc2nnc(-c3cc(OC)cc(OC)c3)o2)cc1 | inactive: -11.8%
CC(=O)C(=Cc1cccc(C#N)c1)C(=O)c1ccccc1 | inactive: -11.3%
CN(Cc1cnc2nc(N)nc(N)c2n1)c1ccc(C(=O)N[C@@H](CCC(=O)O)C(=O)O)cc1 | inactive: -2.3%
CCN(CC)CCNc1ccc(CO)c2sc3ccccc3c(=O)c12 | inactive: -1.5%
O=C(NC(Nc1ncc(S(=O)(=O)c2ccc([N+](=O)[O-])cc2)s1)(C(F)(F)F)C(F)(F)F)c1ccc(Cl)cc1 | inactive: -10.1%
O[C@@H]1[C@@H](O)C=C2CCN3Cc4cc5c(cc4[C@H]1C23)OCO5 (some centres undefined) | inactive: 2.3%
Cn1nnnc1Sc1ncnc2scc(-c3cccs3)c12 | inactive: -10.6%
COCc1ccc(CN2CCC(C(=O)Nc3cccc(-c4cccc(Cl)c4)c3)CC2)o1 | inactive: -9.74%
Cc1ccccc1NC(=O)CSc1n[nH]c(-c2ccccn2)n1 | inactive: -6.35%
O=C(CCCN1C(=O)/C(=C/c2ccccc2Cl)SC1=S)NNC(=O)c1ccc(Cl)cc1 | inactive: -3.94%
CC(=O)N1c2ccc(S(=O)(=O)N3CCC(C(=O)Nc4cccc(C(F)(F)F)c4)CC3)cc2CC1C (centres undefined) | inactive: 0.917%
CCc1ccc(CNC(=O)C2CCN(c3nnc(C)c4c(C)n(-c5ccc(C)cc5)nc34)CC2)cc1 | inactive: -2.21%

From PubChem BioAssay AID1745846 (National Center for Advancing Translational Sciences (NCATS), 2022)
